Patent US8147444B2, “Methods of treating or preventing peritonitis with oxidative reductive potential water solution” (Oculus Innovative Sciences, Inc., priority 2006, dated 2012)
Some results were stated once for a whole list of compounds, not compound by compound.

Test system: Mature murine BMMC
Experiment: Mast cell degranulation, antigen-activated (β-hexosaminidase)
Assay type: cell-based
Details: 15 minute pre-incubation at 37° C., then antigen stimulation 30 minutes

Which “reduction in degranulation (β-hexosaminidase activity)” value does the source give for `O=C(O)c1cc(=O)c2c(OCC(O)COc3cccc4oc(C(=O)O)cc(=O)c34)cccc2o1` [sodium cromoglycate] here?
Its value is “at least 50%”.
